No constants are given. Whether binding was seen depends on the method and setting. Some results given as binding are weak or reduced against the parent protein; the word gives no strength. For some assays here: Sequences can lack the tags named with a protein.

Amino acid sequences for entries named in this document (tags omitted). Residues count along the entry.
UniProt P29965, residues 47-261: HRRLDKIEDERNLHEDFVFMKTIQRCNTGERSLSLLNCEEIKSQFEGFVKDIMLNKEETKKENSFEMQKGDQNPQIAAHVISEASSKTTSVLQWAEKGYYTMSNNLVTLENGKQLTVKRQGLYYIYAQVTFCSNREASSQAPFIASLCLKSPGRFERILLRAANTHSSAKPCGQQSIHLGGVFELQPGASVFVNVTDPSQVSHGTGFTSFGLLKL

For experiment [1], the target named is Recombinant human soluble CD40L (113-261, UNIPROT: P29965) with N-terminal 6xHis-tag (human) (UniProt P29965). Nature of the experiment: co-crystal structure of 342 and 311K4E-12 with CD40L.
For experiment [2] the target is unchanged. Description: co-crystal structure.
The target in experiment [3] is Recombinant human CD40L (Human MegaCD40L; Axxora) (human) (UniProt P29965). Nature of the experiment: loop swapping experiment, plate binding assay.
For experiment [4] the target is unchanged. Nature of the experiment: capture ELISA: His-tagged Tn3 captured on anti-His antibody, biotinylated Human MegaCD40L detected with SA-HRP.
For experiment [5] the target is unchanged. Nature of the experiment: plate binding assay: anti-His capture of Tn3, biotinylated human MegaCD40L, SA-HRP.

B1: 342 monomer scaffold, tagless (for crystallization) (designed binder)
chain: IEVKDVTDTTALITWSDDFGEYVWCELTYGIKDVPGDRTTIDLWYHHAHYSIGNLKPDTEYEVSLICRRGDMSSNPAKETFTT
With B1, the binding result in experiment [1] and in experiment [2] was “binds” each time.

B2: Clone 309FGwt - Parental clone with 'humanized' FG loop (designed binder)
chain: AIEVKDVTDTTALITWSDEFGHYDGCELTYGIKDVPGDRTTIDLWWHSAWYSIGNLKPDTEYEVSLICRRGDMSSNPAKETFTTGGGTLGHHHHHHHH
With B2, the binding result in experiment [3], in experiment [4] and in experiment [5] was “binds” each time.

Values taken from patent US20150098955A1 (VIELA BIO, published 2015).
